# Among all 330,000 compounds or so, about 7,700 (2.3%) were called active. This list was built around the results that the source calls inconclusive (neither active nor inactive); the mix of calls is not that of the screen. Calls follow the shape of the dose curve; as a rule, active = well fitted inhibition curve with a large enough effect; inconclusive = small, poorly fitted or top-dose-only effect, or effect the other way; inactive = flat fitted curve, though single readings scatter. Potencies of inconclusive entries are doubtful fits and often do not repeat.
# Assay: qHTS screen for small molecules that inhibit ELG1-dependent DNA repair in human embryonic kidney (HEK293T) cells expressing luciferase-tagged ELG1; also: nearly all actives have a fitted effect of over 55% in size
# Conditions: HEK293T ELG1-luciferase reporter, luminescence, 16 h, DNA damage induced by 5-fluorouridine; series mostly up to 46.1 µM
# Outline: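 Quantitative HTS, concentration-response format. 2,000 cells/well co-treated with 5-fluorouridine and compound, 16 hr in 5% CO2 at 37 °C; ONE-Glo luminescence read after 30 min.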
# Potency is read from the fitted curve at half-maximal effect.
row,SMILES,Potency
1,Cc1cccc2cc(/C=N/Nc3ccc(C(=O)O)cc3)c(Cl)nc12,"inconclusive: 1.3 µM [activator, full curve]"
2,CCc1ccc(CC(=S)N2CCOCC2)cc1,"inconclusive: 13 µM [activator, partial curve, poor fit]"
3,CCOc1ccc(-n2nnnc2SCC(=O)Nc2cccc(O)c2)cc1,"inconclusive: 16.4 µM [inhibitor, single point]"
4,CC(Sc1nc2ccccc2s1)C(=O)c1c(N)n(C)c(=O)n(C)c1=O (stereo unspecified),"inconclusive: 29.1 µM [inhibitor, single point]"
5,CC(C)CCn1c(=O)c2ccccc2n2c(CCC(=O)NCC3CCCO3)nnc12 (stereo unspecified),inactive
6,CN(Cc1cnn(C)c1)C(=O)c1cc(COc2c(F)cccc2F)on1,"inconclusive: 13 µM [activator, partial curve]"
7,CC(=O)c1cccc(NC(=O)CCc2nnc3ccc(N4CCOCC4)nn23)c1,inactive
8,COC(=O)C1=C(C(=O)OC)[C@@H]2N(Cc3ccccc3)c3ccccc3[C@@]23C[C@@H](C(=O)OC)N(C(=O)c2ccc(Br)cc2)C3=N1,"inconclusive: 29.1 µM [inhibitor, single point]"
9,CCOc1ccc(CNS(=O)(=O)c2c(C(=O)N3CCCC3)c(C)n(C)c2C)cc1OC,"inconclusive: 9.2 µM [activator, partial curve, poor fit]"
10,Cn1cnc([N+](=O)[O-])c1SCC(=O)NN,inactive
11,CCCC(=O)Nc1ccc(NC(=S)NC(=O)c2cccs2)cc1,inactive
12,CC1(C)CCc2cc(-c3ccnc(=S)[nH]3)ccc2O1,"inconclusive: 1.3 µM [activator, full curve]"
13,CCCc1[nH]nc2c1C(c1ccc(OCCN3CCOCC3)c(OC)c1)C(C#N)=C(N)O2 (stereo unspecified),"inconclusive: 13 µM [activator, partial curve, poor fit]"
14,Cc1ccc(C)c(-n2c(Cc3cc(=O)[nH]c(=O)[nH]3)nnc2SCC(=O)NCC2CCCO2)c1 (stereo unspecified),"inconclusive: 0.231 µM [inhibitor, single point]"
15,CCOc1cc(CN2CCN(c3cccc(C(F)(F)F)c3)CC2)ccc1O,"inconclusive: 5.17 µM [inhibitor, partial curve, poor fit]"
16,CCn1c2ccccc2c2cc(NC(=O)c3coc(=O)c(Br)c3)ccc21,inactive
17,Cc1c(C(=O)N2CCCC2)sc(NC(=O)c2ccc(Cl)cc2)c1C#N,"inconclusive: 11.6 µM [inhibitor, partial curve]"
18,CC(=O)Nc1nonc1NC(=O)c1ccc(C(C)(C)C)cc1,"inconclusive: 16.4 µM [activator, partial curve]"
19,Cc1ccc(OCC(O)CN2CCOCC2)c(C)c1 (stereo unspecified),inactive
20,Cc1noc(C)c1S(=O)(=O)N1CCN(c2ccc([N+](=O)[O-])cc2)CC1,inactive
21,C=CCNC(=O)CSc1nc2sc3c(c2c(=O)n1CCC)CCC3,"inconclusive: 18.3 µM [inhibitor, partial curve, poor fit]"
22,Cc1onc(-c2ccccc2)c1-c1nnc(CN2CCN(S(=O)(=O)c3ccccc3F)CC2)o1,"inconclusive: 16.4 µM [inhibitor, partial curve, poor fit]"

# Molecules listed so far with two or more sulfur atoms (three):
row,SMILES,Potency
4,CC(Sc1nc2ccccc2s1)C(=O)c1c(N)n(C)c(=O)n(C)c1=O (stereo unspecified),"inconclusive: 29.1 µM [inhibitor, single point]"
11,CCCC(=O)Nc1ccc(NC(=S)NC(=O)c2cccs2)cc1,inactive
21,C=CCNC(=O)CSc1nc2sc3c(c2c(=O)n1CCC)CCC3,"inconclusive: 18.3 µM [inhibitor, partial curve, poor fit]"

# (continued)

row,SMILES,Potency
1,COc1ccccc1CNC(=O)C(=O)NCCC1CCCCN1S(=O)(=O)c1ccc(C)cc1 (stereo unspecified),"inconclusive: 16.4 µM [inhibitor, single point]"
2,Cc1ccccc1/C=C1\Sc2ccc(C(=O)N3CCN(c4ccccn4)CC3)cc2N(C)C1=O,inactive
3,Cn1nnnc1SCC(=O)Nc1ccc2c(c1)OCO2,"inconclusive: 18.3 µM [activator, partial curve]"
4,CC(=O)Nc1nnc(SCc2cccc(F)c2)s1,"inconclusive: 25.9 µM [activator, single point]"
5,Cn1c(N2CCCCC2)cc(=O)n(C)c1=O,"inconclusive: 0.206 µM [inhibitor, single point]"
6,O=S(=O)(c1ccccc1)N1CCC(O)(CSc2ccccc2)CC1,active: 8.2 µM
7,C/C(=N\O)c1ccc2c3c([nH]c2c1)CCCC3,"inconclusive: 11.2 µM [activator, partial curve, poor fit]"
8,Cc1ccc(C)c2[nH]c(=O)c(CN(CCN3CCOCC3)Cc3nnnn3CC3CCCO3)cc12 (stereo unspecified),active: 16.4 µM
9,CCOc1ccc(NC(=S)NC(=O)c2c(Cl)c(C)nn2C)c([N+](=O)[O-])c1,"inconclusive: 14.6 µM [activator, partial curve, poor fit]"
10,CCCNC(=O)c1ccc(N2CCC3(CC2)CC(c2cccc(Br)c2)=NO3)c(NC(=O)c2cccc(OC)c2)c1,"inconclusive: 3.16 µM [inhibitor, single point]"
11,O=C(c1cccc2ccccc12)C1CCCN(C(=O)CCc2cnccn2)C1 (stereo unspecified),inactive
12,CCOCCn1c(=O)c2c(nc3n2CC(C)CN3CCc2ccccc2)n(C)c1=O (stereo unspecified),"inconclusive: 13 µM [inhibitor, partial curve, poor fit]"
13,COc1ccc(-c2cc(C(=O)N3CCN(c4ccccc4O)CC3)c3ccccc3n2)cc1OC,active: 9.2 µM
14,Cc1ccc(C2(c3ccccc3)NC(=O)N(CC(=O)NCc3ccco3)C2=O)cc1C (stereo unspecified),"inconclusive: 29.1 µM [inhibitor, single point]"
15,COc1ccc(C(=O)CSc2nnc(-c3ccco3)c(-c3ccco3)n2)cc1,inactive
16,Cc1ccc(NC(=O)NC(=O)CN2C(=O)NC3(CCCCCCC3)C2=O)c(C)c1,"inconclusive: 0.0291 µM [inhibitor, full curve, poor fit]"
17,Cc1ccsc1/C=C1\SC(N2CC(C)OC(C)C2)=NC1=O (stereo unspecified),"inconclusive: 23.1 µM [inhibitor, partial curve, poor fit]"
18,COCCN(C(=O)C1=COCCO1)c1c(N)n(CC(C)C)c(=O)[nH]c1=O,inactive
19,CC(=O)c1ccc(N2CCN(S(=O)(=O)c3c(C)[nH]c(C)c3C(=O)N3CCCCC3)CC2)cc1,inactive
20,O=C(O)c1cc(N/N=C/c2cccc3ccccc23)ccc1Cl,"inconclusive: 9.2 µM [activator, partial curve]"
21,O=C(NN/C(=N/S(=O)(=O)c1ccc(Cl)cc1)c1ccccc1)c1ccc(O)cc1,"inconclusive: 9.2 µM [activator, partial curve]"
22,Cc1cc(N=Nc2c(O)c3ccccc3[nH]c2=O)ccc1N=Nc1ccc(C(=O)N(C)C)cc1,"inconclusive: 10.3 µM [activator, partial curve]"

row,SMILES,Potency
1,O=C(C1CCC(CNS(=O)(=O)c2cccs2)CC1)N1CCN(c2ccc(Cl)cc2)CC1 (stereo unspecified),"inconclusive: 7.3 µM [inhibitor, partial curve, poor fit]"
2,COC(=O)c1sc(NC(=O)c2c(-c3ccccc3)noc2C)nc1C,inactive
3,CCOc1ccccc1N1CCN(C(=O)C(Sc2ccccc2)c2ccccc2)CC1 (stereo unspecified),"inconclusive: 9.2 µM [inhibitor, partial curve, poor fit]"
4,O=C(c1cccc(NS(=O)(=O)c2cccc(C(F)(F)F)c2)c1)N1CCOCC1,inactive
5,CCOCCCn1c(SCC(=O)/C(C#N)=C(\C)N)nc2ccccc2c1=O,"inconclusive: 23.1 µM [inhibitor, partial curve, poor fit]"
6,Cc1cccc(C)c1OCc1cc(C(=O)N2CC3C[C@@H]4CC2C[C@H](C3)C4)no1,"inconclusive: 4.61 µM [activator, partial curve]"
7,CC1CCCN(S(=O)(=O)c2ccc(NC(=O)C3CCN(C(=O)c4ccco4)CC3)cc2)C1 (stereo unspecified),"inconclusive: 13 µM [inhibitor, partial curve, poor fit]"
8,CC(=O)Nc1ccccc1/C=C/c1ccc2c(C)cc(C)c(O)c2n1,inactive
9,CCN(c1ccccc1)S(=O)(=O)c1csc(C(N)=O)c1,inactive
10,COc1ccc(C(=O)Nc2nnc(SCC(=O)NC3CC3)s2)cc1,"inconclusive: 3.66 µM [activator, full curve]"
11,COC(=O)c1c(NC(=O)c2ccccc2)sc(C(=O)c2ccccc2)c1C,"inconclusive: 2.06 µM [inhibitor, full curve]"
12,CC1(OC(=O)C2CCCC2)C(=O)C=C2C=C(c3ccsc3)N(CCc3ccccn3)C=C2C1=O (stereo unspecified),inactive
13,O=C1C=CC(=O)C(C2=C3C(=O)N(CCc4ccccc4)CC(=O)N3CCC2)=C1,"inconclusive: 23.1 µM [inhibitor, single point]"
14,CC(C)(C)c1ccc(OCCC(=O)Nc2cccc(S(=O)(=O)N3CCCC3)c2)cc1,"inconclusive: 20.6 µM [inhibitor, single point]"
15,CCOc1cc(NC(=O)c2ccco2)c(OCC)cc1NC(=O)CCC(=O)NCc1cccnc1,"inconclusive: 18.4 µM [inhibitor, single point]"
16,O=C(CCc1ccc(O)c(O)c1)N/N=C/c1ccc2c(c1)OCO2,active: 5.8 µM
17,Cc1ccc(C(=O)NCc2ccccn2)cc1S(=O)(=O)N1CCCCC1,inactive
18,O=C1CC2(CCN(C(=O)COc3ccc(Cl)cc3)CC2)Oc2ccccc21,"inconclusive: 3.66 µM [inhibitor, single point]"
19,Cc1ccc(C(=O)/C=C/Nc2ccc([N+](=O)[O-])cc2Br)cc1,"inconclusive: 1.3 µM [activator, full curve, poor fit]"
20,COc1ccc(C(CNC(=O)c2ccc(S(=O)(=O)N3CCCC3)cc2)N(C)C)cc1OC (stereo unspecified),inactive
21,N=C1SCC(=O)N1c1nc(-c2ccccc2)cs1,"inconclusive: 18.4 µM [activator, partial curve]"
22,Cn1c(CN2CCOCC2)nc2cc(NC(=O)COc3ccc([N+](=O)[O-])cc3)ccc21,"inconclusive: 29.1 µM [inhibitor, single point]"
